Laboratory results reported in paper PMC2662408.
These are yes or no findings as the source states them, for the method shown. Binding seen in cells or lysates may run through a third protein. Here binding means that the protein was enriched with, or labelled near, the bait; the list need not be complete. A no says only that the protein was not detected with the bait. Tags and fused reporters may be left off the sequences shown.

The chains behind the UniProt entries cited, without tags or fusion partners. Where a name states a change or a piece, a line headed by the entry shows the natural chain unless it says otherwise.
UniProt Q02748: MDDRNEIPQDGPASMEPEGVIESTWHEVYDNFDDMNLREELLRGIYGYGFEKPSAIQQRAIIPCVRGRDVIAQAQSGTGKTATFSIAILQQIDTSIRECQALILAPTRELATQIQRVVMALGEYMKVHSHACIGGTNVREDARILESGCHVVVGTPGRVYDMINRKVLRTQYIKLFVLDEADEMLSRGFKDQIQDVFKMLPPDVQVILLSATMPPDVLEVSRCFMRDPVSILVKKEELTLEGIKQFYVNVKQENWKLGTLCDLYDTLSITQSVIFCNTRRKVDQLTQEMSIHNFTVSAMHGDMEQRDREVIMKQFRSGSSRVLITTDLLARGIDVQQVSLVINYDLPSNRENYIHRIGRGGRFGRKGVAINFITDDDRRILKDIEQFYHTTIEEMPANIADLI
UniProt P45975: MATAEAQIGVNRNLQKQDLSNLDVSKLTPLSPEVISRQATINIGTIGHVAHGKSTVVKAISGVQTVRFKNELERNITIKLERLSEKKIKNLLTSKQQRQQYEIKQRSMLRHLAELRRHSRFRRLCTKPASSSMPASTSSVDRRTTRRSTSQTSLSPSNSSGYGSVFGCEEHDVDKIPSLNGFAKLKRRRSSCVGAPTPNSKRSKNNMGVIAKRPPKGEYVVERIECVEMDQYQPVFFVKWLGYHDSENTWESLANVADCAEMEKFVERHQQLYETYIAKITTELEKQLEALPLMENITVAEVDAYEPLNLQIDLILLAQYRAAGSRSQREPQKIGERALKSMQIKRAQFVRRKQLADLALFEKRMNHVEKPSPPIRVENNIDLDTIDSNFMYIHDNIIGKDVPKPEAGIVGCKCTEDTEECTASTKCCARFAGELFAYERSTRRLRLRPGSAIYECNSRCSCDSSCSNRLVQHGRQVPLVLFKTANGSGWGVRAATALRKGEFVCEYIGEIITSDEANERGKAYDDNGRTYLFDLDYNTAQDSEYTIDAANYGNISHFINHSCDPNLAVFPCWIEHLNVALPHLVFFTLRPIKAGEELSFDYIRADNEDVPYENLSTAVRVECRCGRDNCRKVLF

biological target: T1, FLAG tagged HP1c (Drosophila) (UniProt Q9VCU6); test: affinity purification with mass spectrometry; nuclear extract of SL2 cells stably expressing HP1cFLAG on M2 anti-FLAG agarose, 2 hours at 4°C, washed with CB300, eluted with FLAG-peptide, SDS-PAGE, GeLC MS/MS and LC MS/MS; non-transfected cells as control
T1 sequence: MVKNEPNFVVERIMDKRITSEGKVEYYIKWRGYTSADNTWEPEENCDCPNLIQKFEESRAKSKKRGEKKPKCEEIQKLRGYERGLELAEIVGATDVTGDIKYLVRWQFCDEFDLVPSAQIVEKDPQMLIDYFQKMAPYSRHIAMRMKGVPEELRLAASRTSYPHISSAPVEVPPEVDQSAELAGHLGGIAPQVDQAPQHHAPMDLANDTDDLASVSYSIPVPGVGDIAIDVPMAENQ

Row | binding | Substance
1 | binds | eIF4a (from UniProt Q02748 1-403)
2 | binds | Row (Drosophila (endogenous in SL2 cells))
3 | binds | Woc (Drosophila (endogenous in SL2 cells))
4 | no binding | Su(var)3–9 (from UniProt P45975 1-635)
